Experimental data: patent publication EP1693456A1
No constants are given. Whether binding was seen depends on the method and setting. Some binding calls cover weakened binding; strength is not graded here.

By UniProt entry, the sequences of proteins in these tests, tags left out. Residues count along the entry.
UniProt Q12840, residues 2-1032: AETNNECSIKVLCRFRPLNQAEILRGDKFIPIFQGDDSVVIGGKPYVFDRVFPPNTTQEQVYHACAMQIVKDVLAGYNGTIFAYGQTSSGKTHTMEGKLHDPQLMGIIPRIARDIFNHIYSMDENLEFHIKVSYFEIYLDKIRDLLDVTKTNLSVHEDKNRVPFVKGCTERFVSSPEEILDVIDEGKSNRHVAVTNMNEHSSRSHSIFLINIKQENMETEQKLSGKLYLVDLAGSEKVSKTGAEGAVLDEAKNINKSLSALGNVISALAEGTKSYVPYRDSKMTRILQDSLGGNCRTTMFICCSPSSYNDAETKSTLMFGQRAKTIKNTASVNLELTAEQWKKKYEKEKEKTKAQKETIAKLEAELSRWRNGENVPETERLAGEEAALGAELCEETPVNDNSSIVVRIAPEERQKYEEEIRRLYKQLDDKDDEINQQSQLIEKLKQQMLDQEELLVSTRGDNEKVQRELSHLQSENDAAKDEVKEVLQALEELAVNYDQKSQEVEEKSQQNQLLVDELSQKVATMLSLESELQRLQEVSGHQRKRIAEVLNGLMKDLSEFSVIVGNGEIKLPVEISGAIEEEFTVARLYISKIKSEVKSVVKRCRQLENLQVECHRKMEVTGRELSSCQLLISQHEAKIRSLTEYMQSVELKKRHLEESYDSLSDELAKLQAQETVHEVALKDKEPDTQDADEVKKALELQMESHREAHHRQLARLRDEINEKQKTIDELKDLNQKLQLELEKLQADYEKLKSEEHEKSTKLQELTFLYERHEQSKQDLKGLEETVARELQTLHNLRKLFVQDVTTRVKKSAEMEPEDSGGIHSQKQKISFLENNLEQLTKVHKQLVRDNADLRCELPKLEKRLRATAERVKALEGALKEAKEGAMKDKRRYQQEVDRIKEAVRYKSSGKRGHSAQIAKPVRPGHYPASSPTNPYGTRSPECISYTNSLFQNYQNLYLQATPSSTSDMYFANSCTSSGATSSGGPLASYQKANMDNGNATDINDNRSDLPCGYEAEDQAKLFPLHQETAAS
UniProt O14578: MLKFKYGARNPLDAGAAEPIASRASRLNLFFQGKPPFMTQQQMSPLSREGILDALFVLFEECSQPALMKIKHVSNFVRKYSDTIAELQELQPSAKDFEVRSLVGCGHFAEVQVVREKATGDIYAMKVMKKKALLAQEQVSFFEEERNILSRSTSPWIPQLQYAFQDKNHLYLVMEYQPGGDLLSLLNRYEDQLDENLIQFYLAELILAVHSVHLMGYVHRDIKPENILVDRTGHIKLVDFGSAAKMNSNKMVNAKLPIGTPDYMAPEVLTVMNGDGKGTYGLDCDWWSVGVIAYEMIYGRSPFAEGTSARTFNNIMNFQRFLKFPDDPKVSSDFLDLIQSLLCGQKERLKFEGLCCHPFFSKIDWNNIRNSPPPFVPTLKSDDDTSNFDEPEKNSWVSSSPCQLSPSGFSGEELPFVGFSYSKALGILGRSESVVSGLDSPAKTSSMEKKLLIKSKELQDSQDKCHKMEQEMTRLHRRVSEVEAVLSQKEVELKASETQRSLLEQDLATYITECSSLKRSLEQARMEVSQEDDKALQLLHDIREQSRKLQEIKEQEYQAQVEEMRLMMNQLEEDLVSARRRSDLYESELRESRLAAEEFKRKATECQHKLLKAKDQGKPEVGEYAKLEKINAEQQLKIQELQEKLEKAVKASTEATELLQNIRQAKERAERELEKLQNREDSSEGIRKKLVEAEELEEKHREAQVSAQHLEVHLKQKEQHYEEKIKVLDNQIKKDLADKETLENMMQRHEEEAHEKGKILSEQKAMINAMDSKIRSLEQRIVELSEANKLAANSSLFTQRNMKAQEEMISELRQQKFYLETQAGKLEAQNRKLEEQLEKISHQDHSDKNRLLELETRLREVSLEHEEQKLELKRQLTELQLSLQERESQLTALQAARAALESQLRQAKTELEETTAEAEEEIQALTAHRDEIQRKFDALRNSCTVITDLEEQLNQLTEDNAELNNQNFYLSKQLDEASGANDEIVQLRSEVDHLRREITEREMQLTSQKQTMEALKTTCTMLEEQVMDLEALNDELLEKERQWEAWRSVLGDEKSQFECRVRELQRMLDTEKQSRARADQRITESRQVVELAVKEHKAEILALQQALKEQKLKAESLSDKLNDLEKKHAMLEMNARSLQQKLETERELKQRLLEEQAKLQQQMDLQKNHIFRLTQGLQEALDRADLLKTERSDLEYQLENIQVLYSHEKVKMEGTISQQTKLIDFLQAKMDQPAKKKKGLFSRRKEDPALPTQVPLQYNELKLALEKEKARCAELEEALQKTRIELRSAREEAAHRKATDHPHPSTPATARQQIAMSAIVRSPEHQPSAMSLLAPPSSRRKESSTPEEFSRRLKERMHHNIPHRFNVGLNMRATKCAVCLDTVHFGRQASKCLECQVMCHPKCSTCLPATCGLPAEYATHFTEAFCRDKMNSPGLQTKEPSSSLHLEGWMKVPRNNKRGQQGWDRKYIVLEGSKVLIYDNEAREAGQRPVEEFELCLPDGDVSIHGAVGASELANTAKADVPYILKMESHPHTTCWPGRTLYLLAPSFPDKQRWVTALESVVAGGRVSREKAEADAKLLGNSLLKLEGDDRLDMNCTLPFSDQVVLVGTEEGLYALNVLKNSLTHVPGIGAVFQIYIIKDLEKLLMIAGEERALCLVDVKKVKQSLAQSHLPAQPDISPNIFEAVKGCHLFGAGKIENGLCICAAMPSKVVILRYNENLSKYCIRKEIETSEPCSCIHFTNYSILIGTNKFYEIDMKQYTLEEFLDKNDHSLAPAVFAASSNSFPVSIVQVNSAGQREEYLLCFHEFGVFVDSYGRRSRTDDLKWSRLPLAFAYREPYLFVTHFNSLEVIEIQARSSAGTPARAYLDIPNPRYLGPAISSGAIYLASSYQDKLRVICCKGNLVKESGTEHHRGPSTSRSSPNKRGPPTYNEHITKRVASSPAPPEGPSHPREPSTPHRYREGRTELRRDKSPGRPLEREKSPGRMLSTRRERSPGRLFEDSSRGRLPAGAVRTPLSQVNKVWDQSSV
UniProt Q92845: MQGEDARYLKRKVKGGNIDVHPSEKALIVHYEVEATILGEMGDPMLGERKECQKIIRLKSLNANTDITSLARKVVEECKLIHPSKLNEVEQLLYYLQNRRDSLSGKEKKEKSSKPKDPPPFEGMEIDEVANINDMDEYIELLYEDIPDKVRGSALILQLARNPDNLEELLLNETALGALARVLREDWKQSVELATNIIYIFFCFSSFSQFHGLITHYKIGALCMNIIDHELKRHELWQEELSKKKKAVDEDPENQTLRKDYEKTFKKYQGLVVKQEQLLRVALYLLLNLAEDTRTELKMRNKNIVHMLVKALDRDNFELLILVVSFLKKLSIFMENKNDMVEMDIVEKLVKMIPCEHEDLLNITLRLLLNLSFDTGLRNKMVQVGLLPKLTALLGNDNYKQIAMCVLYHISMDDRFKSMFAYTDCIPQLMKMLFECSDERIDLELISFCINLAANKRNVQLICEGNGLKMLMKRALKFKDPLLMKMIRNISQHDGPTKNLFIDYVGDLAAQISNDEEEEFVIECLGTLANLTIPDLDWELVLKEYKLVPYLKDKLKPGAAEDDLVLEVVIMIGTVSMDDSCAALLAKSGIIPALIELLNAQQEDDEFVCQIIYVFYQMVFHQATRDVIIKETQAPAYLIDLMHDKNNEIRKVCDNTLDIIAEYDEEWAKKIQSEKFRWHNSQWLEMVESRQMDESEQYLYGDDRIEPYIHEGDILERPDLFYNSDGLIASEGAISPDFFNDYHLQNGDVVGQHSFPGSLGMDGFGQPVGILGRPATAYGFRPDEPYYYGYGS

Tests used:
DLG3 [1] = molecular target: T1, DLG3 (UniProt Q92796); experiment: yeast two hybrid
T1 sequence (looked up): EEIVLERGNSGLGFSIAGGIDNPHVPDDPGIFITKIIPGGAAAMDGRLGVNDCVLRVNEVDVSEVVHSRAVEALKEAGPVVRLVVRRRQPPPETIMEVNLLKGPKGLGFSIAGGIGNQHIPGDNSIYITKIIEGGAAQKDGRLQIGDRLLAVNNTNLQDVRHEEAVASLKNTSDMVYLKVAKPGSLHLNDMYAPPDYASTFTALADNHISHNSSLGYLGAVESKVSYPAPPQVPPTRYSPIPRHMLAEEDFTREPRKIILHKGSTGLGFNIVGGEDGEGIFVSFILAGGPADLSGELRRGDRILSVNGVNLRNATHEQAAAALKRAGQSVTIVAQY

KIF5A = KIF5A (UniProt Q12840); experiment: yeast two hybrid screen of cDNA libraries
DLG3 [2] = molecular target: T1, DLG3; experiment: yeast two hybrid screen of cDNA libraries
Citron = Citron (UniProt O14578); experiment: yeast two hybrid screen of cDNA libraries
KIFAP3 = KIFAP3 (UniProt Q92845); experiment: yeast two hybrid screen of cDNA libraries
HOMER2 = molecular target: T2, HOMER2 (UniProt Q9NSB8); experiment: yeast two hybrid screen of cDNA libraries
T2 sequence (looked up): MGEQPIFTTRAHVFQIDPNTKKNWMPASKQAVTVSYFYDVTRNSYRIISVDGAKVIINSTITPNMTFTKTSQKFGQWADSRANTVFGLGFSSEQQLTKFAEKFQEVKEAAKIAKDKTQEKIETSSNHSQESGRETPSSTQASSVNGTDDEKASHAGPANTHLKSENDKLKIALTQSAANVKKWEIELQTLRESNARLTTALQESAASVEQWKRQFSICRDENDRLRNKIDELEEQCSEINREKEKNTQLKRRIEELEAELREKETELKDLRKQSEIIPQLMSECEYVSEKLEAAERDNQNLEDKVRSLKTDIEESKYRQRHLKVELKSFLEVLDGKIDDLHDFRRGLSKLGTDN

Measured: binding

B1: bait designed in the C-terminal region of the hBAI2 gene product (without insertion of the amino acid residue) (protein, human, UniProt O60241-2 1175-1584, looked up)
chain: MTDRRSVLFQALFAVFNSAQGFVITAVHCFLRREVQDVVKCQMGVCRADESEDSPDSCKNGQLQILSDFEKDVDLACQTVLFKEVNTCNPSTITGTLSRLSLDEDEEPKSCLVGPEGSLSFSPLPGNILVPMAASPGLGEPPPPQEANPVYMCGEGGLRQLDLTWLRPTEPGSEGDYMVLPRRTLSLQPGGGGGGGEDAPRARPEGTPRRAAKTVAHTEGYPSFLSVDHSGLGLGPAYGSLQNPYGMTFQPPPPTPSARQVPEPGERSRTMPRTVPGSTMKMGSLERKKLRYSDLDFEVMHTRKRHSELYHELNQKFHTFDRYRSQSTAKREKRWSVSSGGAAERSVCTDKPSPGERPSLSQHRRHQSWSTFKSMTLGSLPPKPRERLTLHRAAAWEPTEPPDGDFQTEV
binds: DLG3 [1] | KIF5A | DLG3 [2] | Citron | KIFAP3 | HOMER2
